Assay results published in US11932621B1, “2-[9-(2-hydroxypyridin-3-yl)-1,8-dioxo-1,2,3,4,5-6,7,8,9,10-decahydroacridin-10-yl]-acetate as an antimicrobial compound” (KING FAISAL UNIVERSITY, priority 2023, dated 2024).
At least one structure is not confirmed: it was looked up by name or label, or the drawing left a doubt.

Assays:
Assay type in all cases: cell-based
Staphylococcus aureus = assay: Antimicrobial screening by agar dilution, Staphylococcus aureus; details: St. Aereus
Description: (§1) The antibacterial properties of the synthesized compound 2-[9-(2-hydroxypyridin-3-yl)-1,8-dioxo-1,2,3,4,5,-6,7,8,9,10-decahydroacridin-10-yl]-acetate were studied by the method of agar dilution. Test solutions of each compound was prepared in concentration of 1% using dimethylformamide as a solvent then they are diluted in physiological solution to obtain the final experimental dilutions 1:100, 1:200, 1:400, 1:800. The effect of these substances are compared with furacillin in a controllable study. The testing microbes used were gram positive bacteria Staphylococcus aureus, gram negative bacteria Pseudomonas aeruginosa and Escherichia coli and Candida albicans fungus. The experiments used for this survey were meat-pentonlu agar (EPA) for cultivation of bacteria and Saburo environment for the fungus. Each experiment used 1 mL of test solution on each plate […]. Two drops of emulsified with microbes feel were added. All experimental samples were taken from the agar after 10, 20, 40, 60 minutes in the environment on the basis of Patrk planted. The bacteria were cultivated at a temperature of 37° C. for 1 day and the mushroom was kept in a thermostat for […] at a temperature of 28° C. Then results were checked.

Escherichia coli = assay: Antimicrobial screening by agar dilution, Escherichia coli; details: E. Coli
Description: as §1

Candida albicans = assay: Antimicrobial screening by agar dilution, Candida albicans
Description: as §1

Pseudomonas aeruginosa = assay: Antimicrobial screening by agar dilution, Pseudomonas aeruginosa; details: Ps. Aeroqonaza
Description: as §1

[1] = exposure time 10 min, dilution rate 1:100
[2] = exposure time 10 min, dilution rate 1:200
[3] = exposure time 10 min, dilution rate 1:400
[4] = exposure time 10 min, dilution rate 1:800
[5] = exposure time 20 min, dilution rate 1:100
[6] = exposure time 20 min, dilution rate 1:200
[7] = exposure time 20 min, dilution rate 1:400
[8] = exposure time 20 min, dilution rate 1:800
[9] = exposure time 40 min, dilution rate 1:100
[10] = exposure time 40 min, dilution rate 1:200
[11] = exposure time 40 min, dilution rate 1:400
[12] = exposure time 40 min, dilution rate 1:800
[13] = exposure time 60 min, dilution rate 1:100
[14] = exposure time 60 min, dilution rate 1:200
[15] = exposure time 60 min, dilution rate 1:400
[16] = exposure time 60 min, dilution rate 1:800

Compound: NC(=O)N/N=C/c1ccc([N+](=O)[O-])o1 [Furacilin, furacillin]
- antimicrobial activity (Staphylococcus aureus; [1]): −
- antimicrobial activity (Staphylococcus aureus; [2]): +
- antimicrobial activity (Staphylococcus aureus; [3]): +
- antimicrobial activity (Staphylococcus aureus; [4]): +
- antimicrobial activity (Staphylococcus aureus; [5]): −
- antimicrobial activity (Staphylococcus aureus; [6]): +
- antimicrobial activity (Staphylococcus aureus; [7]): +
- antimicrobial activity (Staphylococcus aureus; [8]): +
- antimicrobial activity (Staphylococcus aureus; [9]): −
- antimicrobial activity (Staphylococcus aureus; [10]): +
- antimicrobial activity (Staphylococcus aureus; [11]): +
- antimicrobial activity (Staphylococcus aureus; [12]): +
- antimicrobial activity (Staphylococcus aureus; [13]): −
- antimicrobial activity (Staphylococcus aureus; [14]): +
- antimicrobial activity (Staphylococcus aureus; [15]): +
- antimicrobial activity (Staphylococcus aureus; [16]): +
- antimicrobial activity (Escherichia coli; [1]): −
- antimicrobial activity (Escherichia coli; [2]): +
- antimicrobial activity (Escherichia coli; [3]): +
- antimicrobial activity (Escherichia coli; [4]): +
- antimicrobial activity (Escherichia coli; [5]): −
- antimicrobial activity (Escherichia coli; [6]): +
- antimicrobial activity (Escherichia coli; [7]): +
- antimicrobial activity (Escherichia coli; [8]): +
- antimicrobial activity (Escherichia coli; [9]): −
- antimicrobial activity (Escherichia coli; [10]): +
- antimicrobial activity (Escherichia coli; [11]): +
- antimicrobial activity (Escherichia coli; [12]): +
- antimicrobial activity (Escherichia coli; [13]): −
- antimicrobial activity (Escherichia coli; [14]): +
- antimicrobial activity (Escherichia coli; [15]): +
- antimicrobial activity (Escherichia coli; [16]): +
- antimicrobial activity (Candida albicans; [1]): −
- antimicrobial activity (Candida albicans; [2]): +
- antimicrobial activity (Candida albicans; [3]): +
- antimicrobial activity (Candida albicans; [4]): +
- antimicrobial activity (Candida albicans; [5]): −
- antimicrobial activity (Candida albicans; [6]): +
- antimicrobial activity (Candida albicans; [7]): +
- antimicrobial activity (Candida albicans; [8]): +
- antimicrobial activity (Candida albicans; [9]): +
- antimicrobial activity (Candida albicans; [10]): +
- antimicrobial activity (Candida albicans; [11]): +
- antimicrobial activity (Candida albicans; [12]): +
- antimicrobial activity (Candida albicans; [13]): +
- antimicrobial activity (Candida albicans; [14]): +
- antimicrobial activity (Candida albicans; [15]): +
- antimicrobial activity (Candida albicans; [16]): +
- antimicrobial activity (Pseudomonas aeruginosa; [1]): +
- antimicrobial activity (Pseudomonas aeruginosa; [2]): +
- antimicrobial activity (Pseudomonas aeruginosa; [3]): +
- antimicrobial activity (Pseudomonas aeruginosa; [4]): +
- antimicrobial activity (Pseudomonas aeruginosa; [5]): +
- antimicrobial activity (Pseudomonas aeruginosa; [6]): +
- antimicrobial activity (Pseudomonas aeruginosa; [7]): +
- antimicrobial activity (Pseudomonas aeruginosa; [8]): +
- antimicrobial activity (Pseudomonas aeruginosa; [9]): +
- antimicrobial activity (Pseudomonas aeruginosa; [10]): +
- antimicrobial activity (Pseudomonas aeruginosa; [11]): +
- antimicrobial activity (Pseudomonas aeruginosa; [12]): +
- antimicrobial activity (Pseudomonas aeruginosa; [13]): +
- antimicrobial activity (Pseudomonas aeruginosa; [14]): +
- antimicrobial activity (Pseudomonas aeruginosa; [15]): +
- antimicrobial activity (Pseudomonas aeruginosa; [16]): +
